Measurements: PubChem BioAssay AID1347137 (National Center for Advancing Translational Sciences (NCATS), 2019)
Inconclusive means that the source gave no clear call. Such entries were picked first, then a sample of the others. Where the call is inconclusive, the potency comes from a doubtful curve fit. Activity calls are given as the source filed them. Calls follow the shape of the dose curve; as a rule, active = well fitted inhibition curve with a large enough effect; inconclusive = small, poorly fitted or top-dose-only effect; inactive = no such curve, though single readings can be large or run the other way.

Assay: qHTS of pediatric cancer cell lines to identify multiple opportunities for drug repurposing: Orthogonal 3D viability screen for Daoy cells
Details: Daoy 3D spheroid viability, PI/Hoechst imaging, 72 h; series mostly up to 30.7 µM; activity change, negative = viability loss: at the top concentration
From the text: Drug repurposing or repositioning has been offered as a strategy for drug development in oncology programs. This approach has special potential for childhood cancers and other rare or orphan diseases, where the expected return on new drug development has been a disincentive to pharmaceuticals. […] In this project we exploit the poly-pharmacology of drugs to discover new indications via phenotypic screening of a panel of 19 well-characterized cell lines derived from solid tumors seen in children and adolescents. The goal is to identify approved drugs with previously unrecognized anticancer properties that has the potential to reveal new mechanisms and biological processes involved in carcinogenesis or drug resistance. We employed a titration-based paradigm (quantitative high-throughput screening or qHTS), where all compounds were tested at multiple concentrations for their effect on cell viability. Concentration-response curves (CRCs) were derived directly from the primary screen, and both potency and efficacy values were used to identify compounds with robust bioactivity profiles. […] These two assays will be use to validate active compounds and assess the correlation of compound's potency in 2D vs 3D cultures on selected cell lines. Assay Submitter: Nathalia J. Martinez, National Center for Advancing Translational Sciences, National Institutes of Health, Rockville, MD, USA; email: natalia.martinez@nih.gov Shen, M et al. Quantitative high-throughput phenotypic screening of pediatric cancer cell lines identifies multiple opportunities for drug repurposing. Oncotarget 2017 Dec 19;9(4):4758-4772. PMID 29435139.
The cells were obtained from University of North Carolina (UNC), Pediatric Preclinical Testing Program (PPT), and Coriell Institute (CI). qHTS viability in 3D culture: Cells were assayed in phenol red-free growth media at a density of 1,000 cells/well, with the exception of Daoy, and SH-N-SH which were assayed at 1,500 cells/ well. Thirty muL of cells were dispensed into 384-well, ULA, round bottom plates (Corning) using a Multidrop dispenser. Plates were spun down at 1,000 rpm for 1 min and incubated at 37 degrees C, 5% CO2, under a humidified atmosphere for either 24 (Daoy) or 48 hours (all other cell lines) to allow spheroid formation. Ninety-two nanoliter of compounds and controls (neutral control DMSO or positive control bortezomib at final concentrations of 0.5 µM) were subsequently transferred via GNF Pintool. Plates were sealed using a breathable seal (Diversified Biotech, Dedham, MA) and incubated for 72 hours at 37 degrees C. Spheroid viability was first determined by high-content imaging using Hoechst 33342 and Propidium Iodide (PI, ThermoFisher Scientific), followed by addition of CellTiter-Glo 3D (Promega). Specifically, 3 µL/well of PBS containing a 1:500 dilution of both dyes was dispensed using Multidrop. Dyes were incubated for 1 hour before imaging using the Celigo Image Cytometer. Then, 20 µl of CellTiter-Glo 3D were added per well. Plates were incubated for 30 min at RT on a VWR microplate shaker (300 rpm) and analyzed for luminescence intensity using a ViewLux High-throughput CCD imager equipped with clear filters. Image analysis was done using the Celigo Tumorsphere 1+2+3 application software as previously described. Briefly, spheroids were first identified using bright-field image segmentation, and then the fluorescent intensities of PI and Hoechst 3342 were obtained using red (EX: 531/40 nm, EM: 629/53 nm) and blue (EX: 377/50 nm, EM: 470/22 nm) filters, respectively. The data were exported to Excel, and the average fluorescent intensities were used to calculate the ratio of PI over Hoechst, which was used to quantify viability. Percent activity based on neutral and positive control bortezomib was derived.

SMILES | activity change, negative = viability loss | Potency
C[C@H]1[C@@H](OC(=O)CCC(=O)O)O[C@@H]2O[C@@]3(C)CC[C@@H]4[C@H](C)CC[C@@H]1[C@@]24OO3 | inactive: -3.63% | –
Nc1ccn([C@@H]2O[C@H](CO)[C@H](O)C2(F)F)c(=O)n1 | – | inconclusive: 102 nM [inhibitor, full curve]
CC(C)Cc1ccc(C(C)C(=O)O)cc1 (stereo not given) | – | inconclusive: 9090 nM [inhibitor, partial curve]
C[C@]1(c2nc3c(C(N)=O)cccc3[nH]2)CCCN1 | – | inconclusive: 6440 nM [inhibitor, full curve]
CN(C)/N=N/c1nc[nH]c1C(N)=O | inactive: -13% | –
CC(C)(C)NC(=O)[C@H]1CN(Cc2cccnc2)CCN1C[C@@H](O)C[C@@H](Cc1ccccc1)C(=O)N[C@H]1c2ccccc2C[C@H]1O | inactive: 22.7% | –
C=C1C(=CC=C2CCC[C@]3(C)[C@@H]([C@H](C)C=C[C@H](C)C(C)C)CC[C@@H]23)C[C@@H](O)C[C@@H]1O | inactive: 54.7% | –
COc1cccc2c1C(=O)c1c(O)c3c(c(O)c1C2=O)C[C@@](O)(C(=O)CO)C[C@@H]3O[C@H]1C[C@H](N)[C@@H](O)[C@H](C)O1 | – | active: 1620 nM
COc1cccc2c1C(=O)c1c(O)c3c(c(O)c1C2=O)C[C@@](O)(C(=O)CO)C[C@@H]3O[C@H]1C[C@H](N)[C@H](OC2CCCCO2)[C@H](C)O1 (stereo not given in full) | – | active: 1440 nM
CC[C@@H]1C=C(C)C[C@H](C)C[C@H](OC)[C@H]2O[C@@](O)(C(=O)C(=O)N3CCCC[C@@H]3C(=O)O[C@H](C(C)=C[C@@H]3CC[C@H](Cl)[C@H](OC)C3)[C@H](C)[C@@H](O)CC1=O)[C@H](C)C[C@H]2OC | – | active: 1440 nM
COc1cc([C@@H]2c3cc4c(cc3[C@H](O)[C@H]3COC(=O)[C@H]23)OCO4)cc(OC)c1OC | – | inconclusive: 32.3 nM [inhibitor, full curve]
C[C@@H]1C[C@H]2[C@@H]3CCC4=CC(=O)C=C[C@]4(C)[C@@]3(Cl)[C@@H](O)C[C@]2(C)[C@@]1(OC(=O)c1ccco1)C(=O)CCl | inactive: 14.8% | –
CCOc1cc(N2CCC(O)CC2)ccc1Nc1ncc2c(n1)N(C)c1ccccc1C(=O)N2C | inactive: 8.62% | –
C[C@]12C=CC(=O)C=C1CC[C@H]1[C@@H]3C[C@@H](O)[C@](O)(C(=O)CO)[C@@]3(C)C[C@H](O)[C@@]12F | inactive: -24.5% | –
COC(=O)Nc1nc2ccc(C(=O)c3ccc(F)cc3)cc2[nH]1 | – | inconclusive: 1440 nM [inhibitor, full curve]
COc1cccc2c1C(=O)c1c(O)c3c(c(O)c1C2=O)C[C@@](O)(C(=O)CO)C[C@@H]3O[C@H]1C[C@H](N)[C@H](O)[C@H](C)O1 | – | active: 2880 nM
Nc1nc2c(ncn2COCCO)c(=O)[nH]1 | – | inconclusive: 7220 nM [inhibitor, partial curve]
COC(=O)Nc1nc2ccc(S(=O)c3ccccc3)cc2[nH]1 (stereo not given) | – | inconclusive: 722 nM [inhibitor, full curve]
COc1ccc(S(=O)(=O)Nc2cccnc2Nc2ccc(O)cc2)cc1 | – | inconclusive: 574 nM [inhibitor, full curve]
Nc1nc(Cl)nc2c1ncn2[C@@H]1O[C@H](CO)[C@@H](O)[C@@H]1F | – | inconclusive: 3620 nM [inhibitor, full curve]
CCc1nc(N)nc(N)c1-c1ccc(Cl)cc1 | – | inconclusive: 11400 nM [inhibitor, partial curve]
CCCCc1nc2cc(C=CC(=O)NO)ccc2n1CCN(CC)CC | – | active: 1620 nM
COc1c(C)c2c(c(O)c1C/C=C(\C)CCC(=O)OCCN1CCOCC1)C(=O)OC2 | – | inconclusive: 3620 nM [inhibitor, full curve]
CC(C)(C)C(=O)OCOP(=O)(COCCn1cnc2c(N)ncnc21)OCOC(=O)C(C)(C)C | – | inconclusive: 2880 nM [inhibitor, full curve]
CC(C)C[C@H](NC(=O)[C@H](Cc1ccccc1)NC(=O)c1cnccn1)B(O)O | – | active: 32.3 nM

Shown as labelled records: entries from further up
C[C@]12C=CC(=O)C=C1CC[C@H]1[C@@H]3C[C@@H](O)[C@](O)(C(=O)CO)[C@@]3(C)C[C@H](O)[C@@]12F
  activity change, negative = viability loss: inactive: -24.5%
COC(=O)Nc1nc2ccc(C(=O)c3ccc(F)cc3)cc2[nH]1
  Potency: inconclusive: 1440 nM [inhibitor, full curve]
